Results are given as percent effect.
The record does not define 0% and 100%; most values in the screen are far below 50% and negative numbers occur (in some assays of this library far below -100).
Compounds were drawn at random from those tested, without regard to their results.
Two or more numbers in one place are separate tests of the same structure; such repeats can differ widely.

By UniProt entry, the sequences of proteins in these tests, tags left out. Residues count along the entry.
UniProt Q8IDJ8, 1-583: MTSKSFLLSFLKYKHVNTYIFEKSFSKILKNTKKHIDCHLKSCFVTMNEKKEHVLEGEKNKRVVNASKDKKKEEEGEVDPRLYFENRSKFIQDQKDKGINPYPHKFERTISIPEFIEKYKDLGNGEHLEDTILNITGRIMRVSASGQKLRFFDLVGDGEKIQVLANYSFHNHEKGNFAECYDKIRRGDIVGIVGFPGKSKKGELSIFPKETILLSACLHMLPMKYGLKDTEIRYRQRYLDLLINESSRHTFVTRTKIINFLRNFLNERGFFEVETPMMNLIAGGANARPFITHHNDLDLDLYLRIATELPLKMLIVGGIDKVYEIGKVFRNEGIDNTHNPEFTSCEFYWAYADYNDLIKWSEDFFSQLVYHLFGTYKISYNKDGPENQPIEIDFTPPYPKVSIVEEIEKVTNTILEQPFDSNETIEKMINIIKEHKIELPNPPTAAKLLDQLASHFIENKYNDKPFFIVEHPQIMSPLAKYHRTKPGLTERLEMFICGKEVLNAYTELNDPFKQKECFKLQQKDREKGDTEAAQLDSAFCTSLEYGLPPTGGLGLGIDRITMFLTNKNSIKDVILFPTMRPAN

A: 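Assay of Toxoplasma gondii numbers, read through their beta-galactosidase reporter with a colour substrate. Compounds at 10 µM. The record gives no direction; the compounds picked for IC50 retests had high values, so higher reads as fewer parasites. About 67,000 compounds were tested under these conditions; 0.38% (about 260) showed 50% or more at least once.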
B: 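Whole-parasite assay of Trypanosoma brucei over 72 hours; the read-out is not stated. Compounds at 30 µM. Direction is inferred from retests: higher values go with stronger inhibition. Values scatter widely below zero; nearly all retest evidence comes from the higher of the two concentrations used. Of about 64,000 compounds tested this way, about 940 (1.5%) reached 50% or more in at least one test.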
C: 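Cell assay of Leishmania donovani living inside macrophages; the read-out is not stated. Compounds at 30 µM. Higher reads as stronger inhibition (inferred: compounds with an IC50 in retests scored well above the rest). Of about 69,000 compounds tested this way, about 1,000 (1.5%) reached 50% or more in at least one test.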
D: 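Lysine-tRNA ligase, Plasmodium falciparum 3D7 (UniProt Q8IDJ8). Enzyme assay of the cytosolic lysyl-tRNA synthetase in 384-well plates, read by luminescence. Concentration: 30 µM. Higher reads as stronger inhibition, judged from the few compounds that gave an IC50. About 69,000 compounds were tested under these conditions; 0.071% (about 49) showed 50% or more at least once.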

CC(=O)NCCC(=O)NCC1(c2c(F)cccc2F)CCCC1 read A: 6.867%; B: -21.84%; C: 46.92%; D: 3.883%.
COc1cc(OC)cc(N2CCC(NC(=O)c3cccn3C)CC2)c1 read A: 4.57%; B: -1.616%; C: 0.6852%; D: -1.173%.
O=C(C1CC=CC1)N1C[C@H]2CN(Cc3ccncc3)C(=O)[C@H]2C1 read D: 0.6924%.
O=C(CNc1cc(F)ccc1OCC1CCCO1)N1CCOCC1 (stereo not given) read A: 2.339%; C: 13.49%; D: 0.3734%.
O=C(NCCN1CCCC1)c1ccc2c(-c3nccs3)noc2c1 read A: 2.451%; B: -4.25%; C: 6.643%; D: 0.4229%.
COCCN1CC(C(=O)NCc2cccnc2-n2cccn2)CC1=O (stereo not given) read A: -6.046%; C: 6.191%; D: 1.544%.
N#Cc1ccc(CN2CCCC3(Cc4ccccc4CNC3=O)C2)cc1 (stereo not given) read A: 10.49%; C: 8.659%; D: 1.891%.
Cc1ccc2cc(C(=O)N3CCN(S(C)(=O)=O)CC3)[nH]c2c1 read A: -13.62%; B: -12.78%; C: 24.77%; D: 2.843%.
Cc1occc1CNC(=O)C1(C)CCCN1C(=O)c1ccccc1 (stereo not given) read A: 7.97%; B: -18.54%; C: -78.28%; D: 4.688%.
COCC(=O)N1C[C@@H](CN2CCCN(C)CC2)[C@@H](CO)C1 read A: 3.394%; B: 5.837%; C: 26.01%; D: 1.819%.
NC(=O)CN1C(=O)CO[C@H]2CN(Cc3ccc(F)c(F)c3)C[C@H]21 read D: 3.195%.
NC(=O)C1CCN(Cn2nc(-c3ccc(F)cc3)oc2=O)C1 (stereo not given) read A: -0.5461%; B: 2.568%; C: -8.426%; D: 3.857%.
c1ccc(-c2cc(CNCCCN3CCCCC3)c3nnnn3c2)cc1 read A: -23.78%; B: -3.089%; C: -4.288% and 2.851%; D: 0.2227%.
c1ccc(CN2CCC(CCNc3ncnc4c3CCNCC4)C2)cc1 (stereo not given) read A: 25.91%; B: -22.22%; C: -39.7%; D: 0.4539%.
COc1ccccc1CC(=O)NS(=O)(=O)c1ccc(NC(C)=O)cc1 read A: 7.714%; C: 13.53%; D: 2.614%.
O=C1CC(c2ncc(-c3ccc4c(c3)OCCO4)[nH]2)CN1C1CCCC1 (stereo not given) read A: -9.491%; B: -16.87%; C: 17.22%; D: 2.602%.
Cc1ncsc1C(=O)NCc1cccs1 read A: 2.046%; B: 15.69%; C: 25.31%; D: 10.11%.
CCn1ncnc1C(C)Nc1cc(C2CC2)ncn1 (stereo not given) read A: 1.85%; B: -39.8%; C: 36.62%; D: 0.9652%.
O=C1OCCC1N1CCN(C(=O)Cc2ccccc2Cl)CC1 (stereo not given) read A: 9.957%; B: -28.08%; C: -1.03%; D: 1.489%.

The first 2 entries again:

- CC(=O)NCCC(=O)NCC1(c2c(F)cccc2F)CCCC1 : A: 6.867%; B: -21.84%; C: 46.92%; D: 3.883%
- COc1cc(OC)cc(N2CCC(NC(=O)c3cccn3C)CC2)c1 : A: 4.57%; B: -1.616%; C: 0.6852%; D: -1.173%

The values are deposited in ChEMBL (CHEMBL3988442, “University of Dundee, Small-Polar-MMV Screening Library” (2021)).